These are yes or no findings as the source states them, for the method shown. In cells and extracts the contact can be indirect. Some results given as binding are weak or reduced against the parent protein; the word gives no strength.

By UniProt entry, the sequences of proteins in these tests, tags left out.
UniProt P51692: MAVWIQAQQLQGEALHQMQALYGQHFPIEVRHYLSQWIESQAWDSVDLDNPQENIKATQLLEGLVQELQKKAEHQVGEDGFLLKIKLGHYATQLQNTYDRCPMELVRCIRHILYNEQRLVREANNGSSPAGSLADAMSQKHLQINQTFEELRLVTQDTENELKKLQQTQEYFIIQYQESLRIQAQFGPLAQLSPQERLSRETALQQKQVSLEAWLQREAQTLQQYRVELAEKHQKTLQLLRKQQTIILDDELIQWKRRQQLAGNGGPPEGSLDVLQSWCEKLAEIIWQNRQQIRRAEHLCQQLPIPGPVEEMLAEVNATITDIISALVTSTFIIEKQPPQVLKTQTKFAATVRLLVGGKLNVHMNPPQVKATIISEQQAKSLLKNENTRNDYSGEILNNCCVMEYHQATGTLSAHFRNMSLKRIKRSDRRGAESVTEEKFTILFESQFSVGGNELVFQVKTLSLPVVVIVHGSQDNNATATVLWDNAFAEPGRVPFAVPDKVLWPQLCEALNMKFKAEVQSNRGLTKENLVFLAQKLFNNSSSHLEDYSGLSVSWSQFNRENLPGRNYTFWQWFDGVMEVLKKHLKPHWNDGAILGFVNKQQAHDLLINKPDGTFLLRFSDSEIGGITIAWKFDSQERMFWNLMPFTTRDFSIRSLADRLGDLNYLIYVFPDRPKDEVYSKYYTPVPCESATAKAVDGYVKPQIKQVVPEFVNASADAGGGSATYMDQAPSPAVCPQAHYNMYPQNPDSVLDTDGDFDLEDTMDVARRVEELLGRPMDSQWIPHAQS

The test concerns the target STAT5B (UniProt P51692). Description: co-IP; The paper calls it a pull-down assay. Caco-2 cells co-transfected with STAT5B-Flag and STAT5B-GFP were pre-treated for 6 h with osmium complex 1, the positive control compound or vehicle, then stimulated with prolactin (200 ng/mL). 30 ug of lysate was incubated with anti-Flag M2 magnetic beads for 1 h at room temperature in TBS (50 mM Tris HCl, 150 mM NaCl, pH 7.4). Detection was by immunoblot with anti-FLAG and anti-GFP.

Take STAT5B (from UniProt P51692 1-787): the binding result was “binds”.

(Values after publication PMC5113070.)
